Measurements reported in PubChem BioAssay AID1259254 (NCATS, 2017).

Purpose: 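Finding genes that stop cells copying their DNA twice in one cycle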 (primary screen)
System: human HCT116 colorectal cancer cells
Knock-down reagent: single siRNA against human genes
Time to read-out: 3 days
Measurement: 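Nuclei stained with Hoechst and imaged; cell-cycle phase assigned by DNA content; G2 share scaled per plate, non-targeting siRNA 0%, GMNN siRNA 100%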
Reading the numbers: G2 robust z-score and G2 cells, % of GMNN control: higher = more G2 cells, more excess DNA replication
Call rule: 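Active siRNAs have a G2 robust z of 5 or more median absolute deviations over the median, which in these data means about 38% or higher of GMNN control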
Shown is one part, drawn at random, of about 59,000 reagents. Of all reagents, about 1,550 (2.6%) were called active. 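G2 share is only a proxy for re-replication; each gene was hit by three separate siRNAs, and active genes were retested.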 Unmarked entries are inactive. Reagents against one gene are numbered here. Further read-outs or replicates are left out here. Not given: the amount of reagent.

TCEAL9 #1 showed G2 robust z-score -0.617; G2 cells, % of GMNN control -1.37.
TCEAL9 #2 showed G2 robust z-score -1.26; G2 cells, % of GMNN control -5.91.
For TCEAL9 #3 the deposit lists G2 robust z-score 0.0462; G2 cells, % of GMNN control 3.29.
With knock-down of LRRC38 #1, the record shows G2 robust z-score 0.08; G2 cells, % of GMNN control 3.53.
For LRRC38 #2 the deposit lists G2 robust z-score 0.361; G2 cells, % of GMNN control 5.51.
LRRC38 #3 showed G2 robust z-score -0.182; G2 cells, % of GMNN control 1.69.
PPP4R1 #1 gave G2 robust z-score -0.552; G2 cells, % of GMNN control -0.919.
With knock-down of PPP4R1 #2, the record shows G2 robust z-score -0.574; G2 cells, % of GMNN control -1.07.
PPP4R1 #3 gave G2 robust z-score 1.15; G2 cells, % of GMNN control 11.1.
Against MACROH2A2 #1, the entry reads G2 robust z-score -0.809; G2 cells, % of GMNN control -2.72.
For MACROH2A2 #2 the deposit lists G2 robust z-score 0.217; G2 cells, % of GMNN control 4.49.
With knock-down of MACROH2A2 #3 the results were G2 robust z-score 0.379; G2 cells, % of GMNN control 5.64.
For CPQ #1, the entry reads G2 robust z-score 0.99; G2 cells, % of GMNN control 9.93.
After knock-down of CPQ #2, the record shows G2 robust z-score -0.46; G2 cells, % of GMNN control -0.271.
CPQ #3 gave G2 robust z-score -0.576; G2 cells, % of GMNN control -1.08.

Copied from the entries so far (5 entries):
LRRC38 #3 → G2 robust z-score: -0.182; G2 cells, % of GMNN control: 1.69
PPP4R1 #1 → G2 robust z-score: -0.552; G2 cells, % of GMNN control: -0.919
PPP4R1 #2 → G2 robust z-score: -0.574; G2 cells, % of GMNN control: -1.07
PPP4R1 #3 → G2 robust z-score: 1.15; G2 cells, % of GMNN control: 11.1
MACROH2A2 #1 → G2 robust z-score: -0.809; G2 cells, % of GMNN control: -2.72

Additional reagents follow.
Against ATF6B #1 the deposit lists G2 robust z-score 1.63; G2 cells, % of GMNN control 14.4.
Against ATF6B #2, the values are G2 robust z-score -0.0463; G2 cells, % of GMNN control 2.64.
After knock-down of ATF6B #3 the results were G2 robust z-score -0.522; G2 cells, % of GMNN control -0.708.
YJU2 #1 showed G2 robust z-score -0.469; G2 cells, % of GMNN control -0.331.
With knock-down of YJU2 #2 the results were G2 robust z-score 0.0973; G2 cells, % of GMNN control 3.65.
Silencing of YJU2 #3 gave: G2 robust z-score -0.655; G2 cells, % of GMNN control -1.64.
With knock-down of RNF8 #1 the results were G2 robust z-score 0.038; G2 cells, % of GMNN control 3.23.
Silencing of RNF8 #2 came out at: G2 robust z-score 1.38; G2 cells, % of GMNN control 12.6.
For RNF8 #3, the entry reads G2 robust z-score 0.102; G2 cells, % of GMNN control 3.69.
COL3A1 #1 showed G2 robust z-score -0.513; G2 cells, % of GMNN control -0.639.
Against COL3A1 #2 the deposit lists G2 robust z-score -0.478; G2 cells, % of GMNN control -0.396.
COL3A1 #3 scored G2 robust z-score -0.928; G2 cells, % of GMNN control -3.56.
Silencing of CTNND1 #1 resulted in: G2 robust z-score 0.767; G2 cells, % of GMNN control 8.36.
CTNND1 #2 scored G2 robust z-score -0.052; G2 cells, % of GMNN control 2.6.
For CTNND1 #3, the values are G2 robust z-score 0.212; G2 cells, % of GMNN control 4.46.
